PubChem BioAssay AID504791, Drosophila RNAi Screening Center – 2011

Test: 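Genes whose knock-down strengthens or weakens small-RNA reporter silencing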 (primary screen)
System: Drosophila S2-derived reporter cells
Reagent: long dsRNA against Drosophila genes, about 150-250 ng dsRNA per well (siRNA assay); about 80-120 ng (miRNA assay)
Duration: about 5 days (siRNA assay); about 4 days (miRNA assay)
Treatment: copper sulfate induction of reporters: 25 µM (siRNA assay); 200 mM stated (miRNA assay), 1-2 days before reading
Measurement: 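Per-well ratio of Renilla over firefly light, expressed relative to that plate's average ratio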
Scale: siRNA reporter hit score: higher = 3 marks a strong hit with raised ratio; -3 a strong hit with lowered ratio
Hit rule: 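a well was a first-pass pick when its plate-scaled ratio rose above 1.5 (siRNA assay) or 1.6 (miRNA assay), or dropped below 0.6; a gene counted only if two separate dsRNAs agreed on retest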
In all, the deposit lists about 23,000 reagents; shown is an unselected part of those that have a named target and a result. In the full data, 199 (0.86%) got an active call. 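Plate-scaled ratios behind the calls are not deposited; printed light signals are raw; many rows marked increased or decreased are still called inactive.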 Names joined by + are all predicted targets of the reagent. No sequences are given here.

predicted target | DRSC id | siRNA reporter hit score | stable siRNA reporter change | miRNA reporter change | stable assay Renilla, run 1 (luminescence) | stable assay firefly, run 1 (luminescence) | Outcome
CG3124 | DRSC04339 | – | – | – | 4635 | 2.58e5 | inactive
CG3124 | DRSC23062 | – | – | – | 3583 | 2.79e5 | inactive
CG5087 | DRSC10479 | – | – | – | 6292 | 4.01e5 | inactive
TwdlH | DRSC14735 | – | reporter ratio lowered past the hit cutoff | – | 6726 | 7.63e5 | inactive
CG16753 | DRSC08489 | – | – | – | 7099 | 4.23e5 | inactive
CG8281 | DRSC10976 | – | – | – | 7039 | 4.35e5 | inactive
CG42367 | DRSC21388 | – | – | – | 8058 | 4.31e5 | inactive
CG15201 | DRSC19648 | – | – | – | 4675 | 3.86e5 | inactive
CG14196 | DRSC19551 | – | – | – | 5542 | 4.07e5 | inactive
Oscillin | DRSC03001 | – | – | – | 23257 | 3.25e5 | inactive
CG13021 | DRSC17893 | – | – | – | 7307 | 5.01e5 | inactive
inaF-A | DRSC19660 | – | – | – | 5007 | 4.16e5 | inactive
Hsc70-2 | DRSC16710 | 3 | – | – | 6912 | 5.22e5 | inactive
CG4968 | DRSC02794 | – | – | – | 91624 | 4.53e5 | inactive
Atg4b | DRSC15988 | – | reporter ratio lowered past the hit cutoff | – | 9593 | 8.45e5 | inactive
CG12535 | DRSC17838 | – | – | – | 5855 | 3.92e5 | inactive
CG33992 (retired record) + CG43755 | DRSC00012 | – | – | – | 5586 | 4.67e5 | inactive
CG15296 | DRSC17983 | – | – | – | 5407 | 4.30e5 | inactive
aph-1 | DRSC00547 | – | – | – | 10687 | 4.13e5 | inactive
Ccp84Aa | DRSC12586 | – | – | – | 7683 | 3.93e5 | inactive
CG10333 | DRSC02036 | – | – | – | 21943 | 1.34e6 | inactive
CG4892 | DRSC01937 | – | – | – | 7376 | 4.47e5 | inactive
CG14627 | DRSC18630 | – | – | – | 6152 | 3.44e5 | inactive
dgt5 | DRSC07280 | – | – | – | 8881 | 5.19e5 | inactive
CR42745 (retired record) | DRSC13756 | – | – | – | 6279 | 5.19e5 | inactive
IFT43 | DRSC02892 | – | – | – | 14788 | 1.70e6 | inactive
CG2201 | DRSC03721 | – | – | – | 75796 | 2.71e5 | inactive
fne | DRSC20332 | – | – | – | 4551 | 4.84e5 | inactive
fne | DRSC22418 | – | – | – | 5168 | 6.48e5 | inactive
Acyp | DRSC01861 | – | – | – | 8866 | 3.91e5 | inactive
Lim3 | DRSC02475 | – | – | – | 5999 | 3.83e5 | inactive
Lim3 | DRSC03363 | – | – | – | 5327 | 2.32e5 | inactive
Lim3 | DRSC22183 | – | – | – | 7620 | 3.14e5 | inactive
Lim3 | DRSC22650 | – | – | – | 3971 | 2.98e5 | inactive
Lim3 | DRSC23034 | – | – | – | 4543 | 2.72e5 | inactive
Ser12 | DRSC00786 | – | – | – | 7638 | 3.36e5 | inactive
dpr4 | DRSC14531 | – | – | – | 6948 | 4.94e5 | inactive
dpr4 | DRSC14929 | – | – | – | 6991 | 3.91e5 | inactive
l(3)05822 | DRSC16202 | – | – | – | 11124 | 3.89e5 | inactive
htl | DRSC16968 | – | – | – | 9687 | 2.72e5 | inactive
TyrRS | DRSC10430 | – | – | – | 8614 | 4.14e5 | inactive
Sod2 | DRSC07554 | – | – | – | 8407 | 2.70e5 | inactive
Prx1 | DRSC10741 | – | – | – | 7114 | 3.04e5 | inactive
CG11267 | DRSC09833 | – | reporter ratio lowered past the hit cutoff | – | 7854 | 8.72e5 | inactive
gom | DRSC04690 | – | – | – | 7291 | 4.39e5 | inactive
CheB38b | DRSC22874 | – | – | – | 3484 | 4.44e5 | inactive
CG1835 | DRSC20560 | – | – | – | 5840 | 3.59e5 | inactive
Galk | DRSC10500 | – | – | – | 8816 | 4.66e5 | inactive
CG12024 | DRSC08229 | – | – | reporter ratio raised past the hit cutoff | 9418 | 2.31e5 | inactive
Lkb1 | DRSC16481 | – | – | – | 9093 | 4.81e5 | inactive
Sbp2 | DRSC10766 | – | – | – | 6978 | 4.85e5 | inactive
CG8520 | DRSC07206 | – | – | – | 7687 | 4.32e5 | inactive
Sems | DRSC11626 | – | – | – | 7366 | 4.23e5 | inactive
tkv | DRSC00860 | – | – | – | 4000 | 3.84e5 | inactive
tkv | DRSC03623 | – | – | – | 14684 | 4.77e5 | inactive
tkv | DRSC22606 | – | – | – | 5183 | 4.41e5 | inactive
EMC8-9 | DRSC04380 | – | – | – | 18723 | 5.23e5 | inactive
CG34054 | DRSC05277 | – | – | – | 5923 | 2.79e5 | inactive
l(3)L1231 | DRSC16323 | – | – | – | 9200 | 3.81e5 | inactive
Ote | DRSC07498 | – | – | – | 8835 | 2.86e5 | inactive
Ptp69D | DRSC11258 | – | – | – | 8584 | 4.48e5 | inactive
ago | DRSC08463 | – | – | reporter ratio raised past the hit cutoff | 6406 | 2.99e5 | active
Jon66Ci | DRSC10772 | – | – | – | 5974 | 4.17e5 | inactive
CG8369 | DRSC16413 | – | – | – | 6691 | 4.97e5 | inactive
CG5885 | DRSC02910 | – | – | – | 34259 | 7.16e5 | inactive
ebo | DRSC18787 | – | – | – | 7191 | 4.65e5 | inactive
CG43861 | DRSC02308 | – | – | – | 6434 | 3.94e5 | inactive
mtg | DRSC16256 | – | – | – | 7348 | 4.92e5 | inactive
SA1 | DRSC03424 | – | – | – | 10939 | 2.91e5 | inactive
sona | DRSC04089 | – | – | – | 6106 | 4.23e5 | inactive
sona | DRSC04574 | – | – | – | 6472 | 3.12e5 | inactive
sona | DRSC04575 | – | – | – | 7122 | 3.59e5 | inactive
Osi23 | DRSC15074 | – | – | – | 6183 | 3.95e5 | inactive
Pak3 | DRSC15017 | – | – | – | 7482 | 2.87e5 | inactive
Rab6 | DRSC03404 | – | – | – | 1.48e5 | 2.63e5 | inactive
Ir52c | DRSC21801 | – | – | – | 10248 | 5.44e5 | inactive
GlcAT-I | DRSC17307 | – | – | – | 6371 | 2.71e5 | inactive
Prosbeta4R1 | DRSC00502 | – | – | – | 7555 | 4.18e5 | inactive
SmydA-1 | DRSC07200 | – | – | – | 6998 | 4.00e5 | inactive
CG7997 | DRSC07052 | – | – | – | 11486 | 3.63e5 | inactive
eIF4G1 | DRSC17218 | – | – | – | 9247 | 3.64e5 | inactive
CG13631 | DRSC14632 | – | – | – | 9499 | 3.62e5 | inactive
CG13631 | DRSC23168 | – | – | – | 5759 | 4.94e5 | inactive

Reagents listed above with an active call, once more:
predicted target | DRSC id | siRNA reporter hit score | stable siRNA reporter change | miRNA reporter change | stable assay Renilla, run 1 (luminescence) | stable assay firefly, run 1 (luminescence) | Outcome
ago | DRSC08463 | – | – | reporter ratio raised past the hit cutoff | 6406 | 2.99e5 | active
